Measured values from the supplement of paper PMC12872613.
Some of the results follow. No stated cut-off is given here; in the data, active = 0.7 or more and inactive = the rest. Most values come without repeats; read them as rough.

System: MiaPaCa-2 CLSA-25
Test: cell death relative to DMSO vehicle (fraction); higher = more cytotoxic
Conditions: 5 µM; treatment time 48 h; medium cystine 25 µM

In the case of `S=c1[nH]cnc2nc[nH]c12` [Mercaptopurine], the cell death is reported as inactive: 0.0305.
With `COC[C@H](NC(=O)c1cnc(C)s1)C(=O)N[C@@H](COC)C(=O)N[C@@H](Cc1ccccc1)C(=O)[C@@]1(C)CO1` [Oprozomib] the cell death was active: 0.718.
For `C#CCC(Cc1cnc2nc(N)nc(N)c2n1)c1ccc(C(=O)N[C@@H](CCC(=O)O)C(=O)O)cc1` (stereo not given in full) [Pralatrexate], the cell death was inactive: 0.101.
For `C[N+](C)(C)CC(=O)O` [Betaine], the cell death was inactive: 0.21.
In the case of `CCOc1ccc(Cc2cc([C@@H]3O[C@H](CO)[C@@H](O)[C@H](O)[C@H]3O)ccc2Cl)cc1` [Dapagliflozin], the cell death is reported as inactive: 0.0602.
With `O=Cc1ccc(O)cc1` [p-Hydroxybenzaldehyde] the cell death was inactive: 0.0364.
For `COc1cc(C[C@H]2C(=O)OC[C@@H]2Cc2ccc(OC)c(OC)c2)ccc1O` [Arctigenin], the cell death was inactive: 0.0391.
`CCCCCCCCCCCCCCCC(=O)OC[C@H](O)[C@H]1OC(=O)C(O)=C1O` [L-Ascorbyl 6-palmitate] was tested, and the cell death was inactive: 0.196.
For `CC1(C)[C@@H](O)CC[C@]2(C)[C@H]3C(=O)C=C4[C@@H]5C[C@@](C)(C(=O)O)CC[C@]5(C)CC[C@@]4(C)[C@]3(C)CC[C@@H]12` [Enoxolone], the cell death was inactive: 0.0445.
`C[C@@H]1O[C@@H](O[C@H]2[C@H](Oc3cc(O)c(C(=O)CCc4ccc(O)cc4)c(O)c3)O[C@H](CO)[C@@H](O)[C@@H]2O)[C@H](O)[C@H](O)[C@H]1O` [Naringin dihydrochalcone] was tested, and the cell death was inactive: -0.00428.
